According to PubChem BioAssay AID2685 (National Center for Advancing Translational Sciences (NCATS), 2010):
The other results are listed elsewhere or left out. Shown are side measurements of this screen, not its main read-out; they come without a call. The list favours compounds with an active or inconclusive main result. The note in brackets gives the kind of curve behind each potency; many fits are weak.

Experiment: qHTS Assay for Lipid Storage Modulators in Drosophila S3 Cells;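 for cell number change: cells counted by Cell Tracker Red CMTPX staining in the red channel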
Settings: BODIPY lipid droplet fluorescence, 18-24 h; for cell number change: measured here: cell count max response, cells fed with added oleic acid
In short: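 Drosophila S3 cells got compounds at several concentrations plus oleic acid (400 uM solution). Laser-scanning cytometry with 488 nm excitation read lipid droplets at 500-530 nm and cells at 575-640 nm. Percent activity was relative to 20 uM Triacsin C.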

[1] = measured here: cell number channel AC50, cells fed with added oleic acid
[2] = measured here: lipid fluorescence (Fed channel) AC50, cells fed with added oleic acid

Row | Structure (SMILES) | cell number change | AC50 [1] | AC50 [2]
1 | CCOc1cc(C(=O)Nc2ccc(S(=O)(=O)Nc3cc(C)on3)cc2)cc(OCC)c1OCC | 0.903% | 6.51 µM [falling, single point] | 6.51 µM [falling, single point]
2 | N#CCSc1ccccc1NC(=O)COC(=O)Cc1c[nH]c2ccccc12 | -5.64% | – | 29.1 µM [rising, single point]
3 | COCCN(Cc1ccc(C)c(Br)c1)C(=O)Cn1cnc(S(=O)(=O)N2CCCC2)c1 | – | – | 0.731 µM [falling, single point]
4 | Cc1cc(/C=C2\Sc3ccccc3N2C)cc(C)[n+]1CC1CCCO1 (configuration not stated) | -18.2% | – | 0.116 µM [falling, full curve, poor fit]
5 | O=C(COc1ccc(Br)cc1)N(Cc1ccco1)C1CCS(=O)(=O)C1 (configuration not stated) | -8.37% | – | 8.2 µM [rising, partial curve]
6 | O=C(COc1ccc(Cl)cc1Cl)NN1C(=O)C2C3C=CC(C3)C2C1=O (configuration not stated) | 27.9% | – | 0.00461 µM [falling, full curve, poor fit]
7 | CCOC(=O)CCCNC(=O)COc1ccccc1C#N | 3.21% | – | –
8 | C[C@@]12C(=O)N(c3cccc(F)c3)C(=O)N1[C@H](c1ccc(F)cc1)[C@@H]1C(=O)N(C3CCCCC3)C(=O)[C@@H]12 | 6.59% | – | –
9 | CCCCCC(=O)N=Nc1c(O)[nH]c2ccc([N+](=O)[O-])cc12 | -13% | – | 0.461 µM [falling, full curve]
10 | CCCC(=NCCc1c(C)[nH]c2ccccc12)C1=C(O)CC(c2ccccc2)CC1=O (configuration not stated) | -30.4% | 16.4 µM [falling, single point] | –
11 | CC(=O)N1c2ccccc2C(=O)C1N(C)c1ccc(C)cc1 (configuration not stated) | – | 6.51 µM [rising, single point] | –
12 | Cc1ccccc1C(=O)NNC(=O)c1ccc(Br)cc1 | – | – | 6.51 µM [rising, single point]
13 | Cc1[nH]n(-c2ccccc2)c(=O)c1C=NCc1ccncc1 | 30.3% | 29.1 µM [rising, single point] | –
14 | Cn1c(=O)c(-[n+]2ccccc2)c([O-])c2ccccc21 | -81.8% | 23.1 µM [falling, partial curve] | 0.206 µM [falling, full curve, poor fit]
15 | CCCCN1C(=O)C(O)(CC(=O)c2c(C)coc2C)c2ccccc21 (configuration not stated) | 89.5% | – | –
16 | COc1ccc(N(C(=O)c2ccncc2)S(=O)(=O)c2ccc(OC)c(OC)c2)cc1 | 23.1% | – | –
17 | CC1CCc2c(nc3nc[nH]n3c2=O)C1 (configuration not stated) | 7.27% | – | –
18 | CCOc1cc(/C=C(\C#N)C(=O)Nc2ccccn2)ccc1O | 0.84% | – | –
19 | O=C(NC1CCCCC1)c1ccc(CNc2ccccc2)o1 | 30.5% | 8.2 µM [rising, single point] | –
20 | COc1cc([N+](=O)[O-])ccc1NC(=O)NN1CCN(C)CC1 | 22.2% | – | 29.1 µM [falling, single point]
21 | O=C(/C=C/c1ccc(Cl)cc1)Nc1ccc(S(=O)(=O)Nc2ncccn2)cc1 | 11.9% | – | –

Row | Structure (SMILES) | cell number change | AC50 [1] | AC50 [2]
22 | O=C(NCCc1ccccc1)C1CCCN1C(=O)Nc1ccccc1 (configuration not stated) | -22% | – | 29.1 µM [rising, single point]
23 | Cn1c2ccccc2c(=O)c2cc(C#Cc3ccsc3)ccc21 | 3.24% | – | 20.6 µM [falling, single point]
24 | CCOc1ccccc1NC(=O)Cn1ncc2ccc([N+](=O)[O-])cc21 | 16.2% | – | 29.1 µM [rising, single point]
25 | COc1ccccc1NC(=O)c1coc(=O)c(Br)c1 | 10.9% | 0.184 µM [falling, full curve] | –
26 | Cc1ccc(NC(=O)c2ccco2)cc1NC(=O)CSc1nnc(-c2cccs2)n1C | – | – | 0.461 µM [rising, full curve]
27 | CCN(CC)S(=O)(=O)c1cc(NC(=O)NCCCl)ccc1C | 2.67% | – | –
28 | COc1ccc(S(=O)NC2CCCCC2)c(OC)c1C (configuration not stated) | -8.54% | – | 6.51 µM [falling, partial curve]
29 | CC(C)(C)NC(=O)COC(=O)c1c2c(nc3ccccc13)CCC2 | -13.2% | – | 0.794 µM [rising, full curve, poor fit]
30 | Cc1cc(C(=O)NCc2cccs2)n(-c2ccccc2)n1 | -13.5% | – | 29.1 µM [falling, single point]
31 | CCCn1c(SCC(=O)Nc2ccccc2Oc2ccccc2)n[nH]c1=O | 95.1% | 13 µM [rising, partial curve] | –
32 | COc1ccccc1CNC(=O)c1cc(C)nn1-c1ccccc1 | 21.3% | – | –
33 | CCCC(=O)Nc1ccc(C(=O)NNC(=S)NC(=O)c2cccs2)cc1 | -8.33% | – | 29.1 µM [rising, single point]
34 | C=C1C(C(=O)N2CCN(C)CC2)C1C(=O)N1CCN(C)CC1 (configuration not stated) | 2.33% | – | –
35 | CCOc1ccccc1NC(=O)COc1cccc(-n2cnnn2)c1 | 9.91% | 0.231 µM [rising, full curve, poor fit] | 0.411 µM [rising, full curve, poor fit]
36 | O=C(Nc1ccc(F)cc1F)c1csc(-c2ccccc2)n1 | -17% | 0.0517 µM [falling, full curve, poor fit] | 0.103 µM [falling, full curve, poor fit]
37 | O=C(c1cc(COc2ccc(F)cc2Cl)on1)N1CCc2sccc2C1 | -4.25% | 1.64 µM [rising, partial curve] | –
38 | CCCc1ccc(-c2csc(NC(=O)Cc3cccs3)n2)cc1 | -51% | 6.51 µM [falling, partial curve] | 1.46 µM [falling, full curve]
39 | N#Cc1nc(-c2cccc3ccccc23)oc1NCC1CCCO1 (configuration not stated) | 17% | 1.84 µM [rising, partial curve] | –
40 | CC(C)(C)Cc1cc(N)on1 | 43.4% | 29.1 µM [rising, single point] | 16.4 µM [rising, single point]
41 | C=CCN1C(=O)C(C(C)CC)NC1=S (configuration not stated) | – | – | 0.58 µM [falling, full curve]
42 | CC1CCCCN1c1nc(-c2ccncc2)nc2ccccc12 (configuration not stated) | -38.1% | 4.61 µM [falling, full curve, poor fit] | –

Row | Structure (SMILES) | cell number change | AC50 [1] | AC50 [2]
43 | C=CC[n+]1c(C)csc1Nc1cccc(Br)c1 | – | 2.31 µM [rising, single point] | 6.51 µM [rising, single point]
44 | Cc1ccc2[nH]c3c(=O)n(CCN4CCNCC4)cnc3c2c1 | 33.8% | 7.31 µM [rising, partial curve, poor fit] | 18.4 µM [rising, partial curve, poor fit]
45 | CC(C)(C)c1ccc(C(=O)O/N=C(\N)c2ccccc2)cc1 | -37.8% | 25.9 µM [falling, single point] | 23.1 µM [falling, single point]
46 | COc1ccc(/C=C2\SC(=S)N(CCC(=O)NCCCN3CCOCC3)C2=O)cc1 | -2.63% | – | –
47 | Cc1cc(NC(=O)c2cc3ccccc3o2)ccc1NC(=O)c1ccccc1 | -20.9% | – | –
48 | COc1cccc(CNC(=O)COc2cccc(-n3cnnn3)c2)c1 | 78.3% | 23.1 µM [rising, partial curve] | 29.1 µM [rising, single point]
49 | COc1ccccc1C(=O)COC(=O)c1ccc(N(C)C)cc1 | 74.2% | 20.6 µM [rising, partial curve, poor fit] | –
50 | COc1ccccc1N(CN1CCCC1=O)C(=O)COc1ccccc1 | 18.7% | – | 25.9 µM [rising, single point]
51 | CC1CCCCC12NC(=O)N(CC(=O)N1CCN(C(=O)c3ccco3)CC1)C2=O (configuration not stated) | -6.33% | – | 3.66 µM [falling, partial curve, poor fit]
52 | Cc1ccc(CCNC(=O)c2nc(CS(=O)(=O)c3ccc(Cl)cc3)no2)cc1 | -10.8% | – | 0.231 µM [rising, partial curve, poor fit]
53 | Oc1ccccc1/C=N/Nc1nc2ccccc2o1 | -30.9% | 2.59 µM [falling, full curve] | 29.1 µM [falling, single point]
54 | CCn1c(Cn2nnc(-c3ccccc3)n2)nnc1SCc1ccc(Cl)c(Cl)c1 | 69.4% | 6.51 µM [rising, full curve] | 6.51 µM [rising, single point]
55 | Cc1cc(=O)n(CCCc2ccccc2)[nH]1 | 24.8% | – | 0.651 µM [rising, partial curve]
56 | Cc1ccc(C23CC4CC(CC(C(=O)N(C)C)(C4)C2)C3)cc1 | – | 0.58 µM [falling, single point] | 0.58 µM [falling, single point]
57 | O=C(Nc1ccc(N2C(=O)CCC2=O)cc1Cl)c1cccs1 | 5.43% | – | –
58 | c1ccc(-n2c(SCc3ccncc3)nnc2-c2ccco2)cc1 | -13.3% | – | –
59 | O=C(Cn1nnc(-c2ccncc2)n1)N1CCc2ccccc21 | 3.05% | – | –
60 | N#CC1=C(N)OC2=C(C(=O)CC(c3ccccc3)C2)C1c1ccc2c(c1)OCO2 (configuration not stated) | 12.2% | – | 0.411 µM [rising, full curve]
61 | COc1cccc(CNC(=O)c2ccc(S(=O)(=O)N3CCCC3)cc2)c1 | -11.9% | – | 6.51 µM [falling, single point]
62 | CCN(CC)S(=O)(=O)c1ccc2oc(Nc3ccc(OC)cc3OC)nc2c1 | 12.4% | – | 0.231 µM [rising, full curve]
63 | COC(=O)[C@@H]1CC[C@H](C)[C@@H](c2ccc(C)cc2)N1C(=O)c1ccc(/C=N/OCC[C@@H]2C=C[C@H](OC(C)=O)[C@@H](COC(C)=O)O2)cc1 | -7.05% | – | 14.6 µM [falling, single point]

An excerpt of these results, in CSV form:
Row,Structure (SMILES),cell number change,AC50 [1],AC50 [2]
28,COc1ccc(S(=O)NC2CCCCC2)c(OC)c1C (configuration not stated),-8.54%,–,"6.51 µM [falling, partial curve]"
29,CC(C)(C)NC(=O)COC(=O)c1c2c(nc3ccccc13)CCC2,-13.2%,–,"0.794 µM [rising, full curve, poor fit]"
30,Cc1cc(C(=O)NCc2cccs2)n(-c2ccccc2)n1,-13.5%,–,"29.1 µM [falling, single point]"
31,CCCn1c(SCC(=O)Nc2ccccc2Oc2ccccc2)n[nH]c1=O,95.1%,"13 µM [rising, partial curve]",–
